Chains of the proteins cited; added tags and fusions are not shown.
UniProt P09471, whole entry, looked up: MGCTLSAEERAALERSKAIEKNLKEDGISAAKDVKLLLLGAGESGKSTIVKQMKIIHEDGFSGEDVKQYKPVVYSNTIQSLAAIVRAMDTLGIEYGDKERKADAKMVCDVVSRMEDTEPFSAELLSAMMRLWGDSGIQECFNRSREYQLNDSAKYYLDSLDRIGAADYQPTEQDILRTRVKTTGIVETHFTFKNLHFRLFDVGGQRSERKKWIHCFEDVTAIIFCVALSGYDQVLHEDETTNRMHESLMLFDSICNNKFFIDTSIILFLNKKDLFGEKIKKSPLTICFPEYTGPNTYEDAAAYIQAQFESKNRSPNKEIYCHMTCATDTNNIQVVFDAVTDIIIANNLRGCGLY

Hit rate of the full screen: of about 220,000 compounds, about 770 (0.35%) were called active. Inconclusive means that the source gave no clear call. Such entries were picked first, then a sample of the others. Cut-off read from the data, not from the text of the source: active = binding response below about 49% or above about 150%; inconclusive = no clear call, values can overlap the other calls; inactive = in between.
The molecules below were run against Guanine nucleotide-binding protein G(o) subunit alpha (Homo sapiens) (UniProt P09471) (assay: RGS7-Galphao binding modulators, primary screen, biochemical, multiplexed bead flow cytometry (AID 1439;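 note: fluorescent Galphao held in activated GDP-AlF4 state binding bead-coupled RGS7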)). Settings: at 10 µM, actives lie on both sides.
With CCNc1sc(S(C)(=O)=O)nc1S(=O)(=O)c1ccc(Cl)cc1 the binding response (% of control) was inactive: 99.2%. With Cc1cc(C)c(C(=O)CN2C(=O)NC3(CCCCC3)C2=O)cc1C the binding response (% of control) was inconclusive: 90%. In the case of Fc1ccc(-c2nnc3n2CCCCC3)cc1, the binding response (% of control) is reported as inconclusive: 101%. With Cc1[nH]c2ccccc2c1/C=C/c1nc2ccccc2c(=O)[nH]1 the binding response (% of control) was inconclusive: 96%. O=C(c1cccs1)N1C(=O)c2cccc3cccc1c23 was tested, and the binding response (% of control) was inconclusive: 105%. With COc1ccc(-c2nnc(CSc3nc4ccccc4c(=O)n3CC3CCCO3)o2)cc1OC (stereo not given) the binding response (% of control) was inconclusive: 95%. With O=C(Nc1cccc(-c2csc(Nc3ccc(Cl)cc3)n2)c1)c1cccc(C(F)(F)F)c1 the binding response (% of control) was inconclusive: 83.1%. With Cc1ccc(-c2ccc(CCC(=O)O)n2NC(=O)c2ccc([N+](=O)[O-])cc2)cc1 the binding response (% of control) was inactive: 105%. In the case of CCn1nc(C)c([N+](=O)[O-])c1C(=O)NNC(=O)c1ccc(Cl)cc1, the binding response (% of control) is reported as inconclusive: 131%. In the case of O=C(c1ccco1)N1CCN(c2ccc([N+](=O)[O-])cc2Cl)CC1, the binding response (% of control) is reported as inconclusive: 115%. In the case of Cc1onc(-c2c(F)cccc2Cl)c1-c1nnc(-c2ccc(C(F)(F)F)cc2)o1, the binding response (% of control) is reported as inconclusive: -303%. In the case of O=C(CSc1cccc2cccnc12)N/N=C/c1ccc(O)cc1, the binding response (% of control) is reported as inconclusive: 80.4%. For Cc1ccc(C(=O)Nc2ccc(N3CCCC3)cc2)cc1, the binding response (% of control) was inconclusive: 99.8%. In the case of CCc1cc[n+](CC(=O)Nc2ccc(Cl)cc2Cl)cc1, the binding response (% of control) is reported as inconclusive: 110%. With O=C(Nc1ncccc1O)c1c(O)c2ccccc2[nH]c1=O the binding response (% of control) was inconclusive: 184%. With Cc1ccc(-c2nn(-c3ccccn3)c(=O)c3ccccc23)cc1C the binding response (% of control) was inconclusive: -181%. With O=C(COC(=O)c1c[nH]c(=O)[nH]c1=O)Nc1ccccc1 the binding response (% of control) was inconclusive: 117%. With CN(CC(=O)NC1CCCCC1)S(=O)(=O)c1cccc2cccnc12 the binding response (% of control) was active: 241% [activator]. With CC(C)C[C@H](NC(=O)c1[nH]cnc1C(=O)Nc1ccccc1)C(=O)OC(C)(C)C the binding response (% of control) was inconclusive: 95.7%. With CCCc1ccc(OCC(=O)Nc2cc(S(=O)(=O)CC)ccc2O)cc1 the binding response (% of control) was inactive: 98.5%. With COc1cc(C2C(C(=O)/C=C/c3ccccc3)=C(O)C(=O)N2c2ccccn2)ccc1O (stereo not given) the binding response (% of control) was inactive: 105%. With CCOc1ccc(CC(=O)NCC2(N3CCCCC3)CCCCC2)cc1 the binding response (% of control) was inconclusive: 135%. With CCC(C)NC(=O)c1cn(CC)c2cc(N3CCN(C)CC3)c(F)cc2c1=O (stereo not given) the binding response (% of control) was inconclusive: -5.77%. Nc1cc(=O)n(Cc2ccccc2)c(=O)n1-c1ccc(F)cc1 was tested, and the binding response (% of control) was inconclusive: 144%. For COc1ccc(-n2nc(C(=O)NCC(=O)Nc3cccc(NC(C)=O)c3)c3ccccc3c2=O)cc1, the binding response (% of control) was inconclusive: 105%. With Cc1ccc2c(C(=O)CN3CCN(c4ccccc4)CC3)c(C)[nH]c2c1 the binding response (% of control) was inactive: 99%. CS(=O)(=O)c1ccc2nc(NC(=O)CN3C(=O)C4CC=CCC4C3=O)sc2c1 (stereo not given) was tested, and the binding response (% of control) was inconclusive: 101%. With CCc1ccc(/C=C2\Oc3c(ccc(O)c3CN3CCN(C)CC3)C2=O)cc1 the binding response (% of control) was inconclusive: 270%. For COc1cccc(-c2nc(-c3ccc(Br)o3)no2)c1, the binding response (% of control) was inconclusive: 116%. With NC(=O)c1ccc(Nc2ccc([N+](=O)[O-])cc2[N+](=O)[O-])cc1 the binding response (% of control) was inconclusive: 88.4%. With Cc1cc(-c2nc(-c3ccc(C(C)(C)C)cc3)no2)no1 the binding response (% of control) was inconclusive: 148%. In the case of O=C(O)CCCNC(=O)CCCn1nnc2ccccc2c1=O, the binding response (% of control) is reported as inconclusive: 99.6%. With CN(C)CCNC(=O)/C(=C/c1ccc(-c2ccc(Cl)cc2)o1)NC(=O)c1ccccc1 the binding response (% of control) was active: 186% [activator]. CC(C)c1cc(C(=O)O)c2cnn(C(C)C)c2n1 was tested, and the binding response (% of control) was inconclusive: 35.1%. With OC(COCc1ccc2c(c1)OCO2)CN1CCC(Cc2ccccc2)CC1 (stereo not given) the binding response (% of control) was inconclusive: 65.4%. For CSc1ccc(CN(C)Cc2nc3ccccc3c(=O)[nH]2)cc1, the binding response (% of control) was inconclusive: 134%. With Cc1cccc(C)c1NC(=S)NC(=O)c1ccc(Br)o1 the binding response (% of control) was inconclusive: 97.8%. In the case of C=CCn1cc(/C=C2/NC(=O)NC2=O)c2ccccc21, the binding response (% of control) is reported as inconclusive: 128%. In the case of Cc1ccc([N+](=O)[O-])c(OCC(O)CNC(C)(C)C)c1 (stereo not given), the binding response (% of control) is reported as inconclusive: 89.5%. For CC1CCC(N2CCNCC2)CC1 (stereo not given), the binding response (% of control) was inactive: 104%. For Cc1ccc(S(=O)(=O)Nc2cc(C)c(O)cc2C)cc1, the binding response (% of control) was inconclusive: 70.8%. In the case of O=C(CSc1nc2ccccc2[nH]1)Nc1nc(-c2ccc(Br)cc2)cs1, the binding response (% of control) is reported as inactive: 108%. In the case of C=CCN1C2CCCC1CC(NC(=O)Nc1cc(C)cc(C)c1)C2 (stereo not given), the binding response (% of control) is reported as inactive: 105%. In the case of O=C(/C=C\c1ccco1)NC(=S)Nc1ccccc1O, the binding response (% of control) is reported as inconclusive: 61.6%. CCOc1ccccc1NC(=O)c1cc(-c2ccncc2)nc2c(Cl)cccc12 was tested, and the binding response (% of control) was inconclusive: 134%. For CCOc1ccc(NC(=S)N2CCN(C/C=C/c3ccccc3)CC2)cc1, the binding response (% of control) was inconclusive: 106%. With O=C(NCC1CCCO1)c1cc([N+](=O)[O-])ccc1Cl (stereo not given) the binding response (% of control) was inactive: 107%. For O=C(COC(=O)c1ccc2c(c1)C(=O)N(Cc1ccncc1)C2=O)Nc1cccc2ccccc12, the binding response (% of control) was inconclusive: 104%. In the case of COCc1ccc(C(=O)N2CCc3c([nH]c4ccccc34)C2c2ccccn2)s1 (stereo not given), the binding response (% of control) is reported as inconclusive: 88.8%. For O=C(NCCSc1ccccc1)c1ccc(Br)cc1, the binding response (% of control) was inactive: 97.2%. CCC(CC)NC(=O)Nc1ccccc1C(F)(F)F was tested, and the binding response (% of control) was inconclusive: 177%. For COc1ccc(OC)c(CN(CCN2CCOCC2)S(=O)(=O)c2ccc(NC(C)=O)cc2)c1, the binding response (% of control) was inconclusive: 93.8%. CC(C)[C@@H]1C=C(C(=O)O)O[C@H](OCCCCO)C1 was tested, and the binding response (% of control) was inconclusive: 126%. COC(=O)[C@H](CC(C)C)NC(=O)NCc1ccc(Cl)cc1 was tested, and the binding response (% of control) was inconclusive: 64.3%. For CCOC(=O)c1oc2cc(C)cc(C)c2c1C, the binding response (% of control) was inconclusive: 95%. For NCCSSCCN, the binding response (% of control) was inconclusive: 85.3%. For O=C(O)c1ccc(-c2ccco2)n1Cc1ccccc1, the binding response (% of control) was inactive: 104%. In the case of CCOC(=O)Cc1csc(NC(=O)Nc2ccc(Cl)cc2)n1, the binding response (% of control) is reported as inconclusive: -134%. For CC(C)N(C)C(=O)C(=O)c1cccn1-c1cccc(Cl)c1C#N, the binding response (% of control) was inactive: 98.5%. For COc1ccc(CCNC(=O)COC(=O)c2cc(OC)c(OC)cc2OC)cc1OC, the binding response (% of control) was active: 172% [activator]. In the case of Cc1cc(C)cc(NC(=O)N2c3ccccc3NC(=O)CC2C)c1 (stereo not given), the binding response (% of control) is reported as inconclusive: 69.9%. For CCN(CC)S(=O)(=O)c1cccc(NC2=NCC(C)S2)c1 (stereo not given), the binding response (% of control) was inconclusive: 83%. With COc1ccc(-c2c(=O)n(OCc3nc4ccccc4[nH]3)c3ccccc3[n+]2[O-])cc1 the binding response (% of control) was inconclusive: 102%. In the case of CCOC(=O)c1ccc(NC(=O)C2CCC(CNc3c(N4CCOCC4)c(=O)c3=O)CC2)cc1 (stereo not given), the binding response (% of control) is reported as inconclusive: 100%. Cc1ccc(-c2csc(N=C(N)N)n2)c(C)c1 was tested, and the binding response (% of control) was inconclusive: -345%. With O=C(NC1CC1)C1=C[C@@H](c2ccc3c(c2)OCO3)C[C@@H](OCc2ccc(CO)cc2)O1 the binding response (% of control) was inactive: 99.2%. For O=C(COC(=O)CCc1ccccc1)Nc1ccccc1OC(F)F, the binding response (% of control) was inconclusive: 104%. In the case of Cc1cccc(N(C(=O)c2snc(C(N)=O)c2N)C(C)C(=O)NCC2CCCO2)c1 (stereo not given), the binding response (% of control) is reported as inconclusive: 97.6%. For S=C(N/N=C/c1ccccc1Cl)Nc1cccc(Cl)c1Cl, the binding response (% of control) was inconclusive: 119%. In the case of NC(=O)c1ccc(Oc2ccc(C(N)=O)cc2)cc1, the binding response (% of control) is reported as inconclusive: 116%. With CCOP(=O)(OCC)/C(C#N)=C(\O)c1ccc(OC)cc1 the binding response (% of control) was inconclusive: 93.3%. COc1cc2[nH]c(Cl)c([N+](=O)[O-])c2cc1OC was tested, and the binding response (% of control) was inconclusive: 85.4%. For COc1ccc(-c2nc(=S)c3ccc4ccccc4c3[nH]2)cc1, the binding response (% of control) was inconclusive: 86.6%. For COc1ccc(Br)c(C(=O)N2CCN(S(=O)(=O)c3cccs3)CC2)c1, the binding response (% of control) was inconclusive: 101%. CCOC(=O)c1cc(-c2ccc(Cl)cc2)nc2onc(C)c12 was tested, and the binding response (% of control) was inactive: 95.8%. In the case of NS(=O)(=O)c1ccc(NC(=O)Nc2ccc(S(N)(=O)=O)cc2)cc1, the binding response (% of control) is reported as inconclusive: 86.3%. In the case of COc1ccc(C2/C=C\CN(C(=O)C3CC3)CC(=O)N2Cc2ccc(F)cc2)cc1 (stereo not given), the binding response (% of control) is reported as inconclusive: 86.6%. For COC(=O)C1CC(O)CN1C(=O)Nc1ccccc1 (stereo not given), the binding response (% of control) was inconclusive: 124%. In the case of C/C(CC(=O)Nc1ccc2c(c1)OCO2)=N\NC(=O)c1ccc(N)cc1, the binding response (% of control) is reported as inconclusive: 95.3%. In the case of Cc1onc(C(=O)Nc2c(C)n(C)n(-c3ccccc3)c2=O)c1[N+](=O)[O-], the binding response (% of control) is reported as inconclusive: 120%. With CCCCn1c(N)c(N(Cc2ccccc2OC)C(=O)COc2ccccc2C#N)c(=O)[nH]c1=O the binding response (% of control) was inconclusive: 53.8%. With COc1ccc(/C=C(\NC(=O)c2ccccc2)C(=O)NNC(=O)CCN2CCOCC2)cc1 the binding response (% of control) was inactive: 99.3%. With COC(=O)C1(NC(=O)NC23CC4CC(CC(C4)C2)C3)CCCCC1 the binding response (% of control) was inconclusive: 105%. In the case of O=C(NCc1ccccc1)N1CCC(CO)(Cc2cccc(F)c2)CC1, the binding response (% of control) is reported as inconclusive: 128%. For N#Cc1c(-c2cccnc2)cc(-c2ccccc2)nc1N, the binding response (% of control) was inconclusive: 68%. With Cc1c(C(=O)NCCSCc2ccc(F)cc2)cnn1-c1ccc(Cl)cc1 the binding response (% of control) was inconclusive: 82.5%. COc1cc(SC)ccc1C(=O)OCC(=O)NC1CCCCC1 was tested, and the binding response (% of control) was inconclusive: 110%. In the case of Cn1c(=O)c2c(ncn2CC(=O)Nc2nccs2)n(C)c1=O, the binding response (% of control) is reported as inconclusive: 110%. O=C(Cc1ccc(S(=O)(=O)N2CCOCC2)s1)Nc1ccccc1Br was tested, and the binding response (% of control) was inconclusive: 106%. Cc1nc2c(=O)n(-c3cccc(C(F)(F)F)c3)nc(C)c2s1 was tested, and the binding response (% of control) was inconclusive: 84.2%.

— PubChem BioAssay AID1439 (NMMLSC, 2008)
